For one substance, binding results are on record in publication doi:10.1101/2024.11.18.624083.

Protein sequences, listed by entry. Tags and fused reporters are not part of them.
UniProt Q6P5D8: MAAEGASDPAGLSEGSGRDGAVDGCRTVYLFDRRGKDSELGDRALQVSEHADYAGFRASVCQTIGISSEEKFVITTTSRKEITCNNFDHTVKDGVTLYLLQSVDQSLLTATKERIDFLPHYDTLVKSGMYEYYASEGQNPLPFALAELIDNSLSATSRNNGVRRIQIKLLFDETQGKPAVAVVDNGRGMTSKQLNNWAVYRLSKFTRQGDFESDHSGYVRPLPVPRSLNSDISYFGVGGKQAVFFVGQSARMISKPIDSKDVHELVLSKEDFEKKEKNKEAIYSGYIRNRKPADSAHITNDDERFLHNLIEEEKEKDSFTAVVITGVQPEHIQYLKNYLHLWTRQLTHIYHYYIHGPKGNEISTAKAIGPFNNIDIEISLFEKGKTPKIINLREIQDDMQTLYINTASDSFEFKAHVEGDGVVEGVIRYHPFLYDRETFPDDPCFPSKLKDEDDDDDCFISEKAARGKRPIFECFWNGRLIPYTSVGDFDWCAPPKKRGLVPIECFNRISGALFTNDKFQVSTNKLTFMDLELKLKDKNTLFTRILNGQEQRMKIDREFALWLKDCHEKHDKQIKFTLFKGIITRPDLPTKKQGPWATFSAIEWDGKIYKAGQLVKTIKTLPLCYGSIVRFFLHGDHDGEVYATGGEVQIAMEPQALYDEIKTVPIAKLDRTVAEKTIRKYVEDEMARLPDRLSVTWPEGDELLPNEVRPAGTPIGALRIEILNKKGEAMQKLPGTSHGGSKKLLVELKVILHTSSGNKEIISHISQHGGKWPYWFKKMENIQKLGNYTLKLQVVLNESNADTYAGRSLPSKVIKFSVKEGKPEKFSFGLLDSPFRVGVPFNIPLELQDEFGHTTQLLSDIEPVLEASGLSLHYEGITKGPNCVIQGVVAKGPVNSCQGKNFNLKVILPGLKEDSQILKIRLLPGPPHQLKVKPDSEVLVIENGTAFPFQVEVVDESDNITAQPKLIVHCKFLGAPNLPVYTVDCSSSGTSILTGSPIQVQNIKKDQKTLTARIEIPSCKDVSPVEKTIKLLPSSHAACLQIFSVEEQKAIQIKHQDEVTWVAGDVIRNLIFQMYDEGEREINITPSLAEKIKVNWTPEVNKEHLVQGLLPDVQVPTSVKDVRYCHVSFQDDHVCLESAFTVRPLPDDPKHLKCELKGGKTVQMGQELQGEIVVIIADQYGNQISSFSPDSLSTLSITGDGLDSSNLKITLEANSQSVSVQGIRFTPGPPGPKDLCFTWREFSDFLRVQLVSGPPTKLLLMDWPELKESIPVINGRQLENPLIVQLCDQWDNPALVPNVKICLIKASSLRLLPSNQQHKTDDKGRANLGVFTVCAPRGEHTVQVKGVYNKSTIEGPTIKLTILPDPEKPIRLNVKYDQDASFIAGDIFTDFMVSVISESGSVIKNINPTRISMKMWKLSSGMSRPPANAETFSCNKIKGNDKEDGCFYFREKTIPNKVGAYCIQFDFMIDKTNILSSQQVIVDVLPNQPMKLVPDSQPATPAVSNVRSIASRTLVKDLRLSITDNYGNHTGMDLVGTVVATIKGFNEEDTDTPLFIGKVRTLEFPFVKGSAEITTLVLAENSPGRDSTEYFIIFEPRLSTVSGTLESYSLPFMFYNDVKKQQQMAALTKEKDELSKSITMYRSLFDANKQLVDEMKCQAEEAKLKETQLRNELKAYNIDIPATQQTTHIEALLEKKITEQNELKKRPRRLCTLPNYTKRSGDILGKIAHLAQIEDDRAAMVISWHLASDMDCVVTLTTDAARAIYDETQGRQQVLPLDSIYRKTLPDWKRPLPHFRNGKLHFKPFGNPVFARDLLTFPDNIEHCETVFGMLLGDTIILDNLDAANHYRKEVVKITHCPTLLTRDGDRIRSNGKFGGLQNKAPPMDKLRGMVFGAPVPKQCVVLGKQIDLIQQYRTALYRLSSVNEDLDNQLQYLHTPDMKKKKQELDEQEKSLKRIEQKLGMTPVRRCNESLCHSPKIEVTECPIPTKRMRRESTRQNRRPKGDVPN

Results are given in words; binding and its absence hold for the method and conditions named. Binding seen in cells or lysates may run through a third protein. These calls come from enrichment with a bait or labelling near it, and not all partners need be listed. Sequences can lack the tags named with a protein.

The assay deals with T1, GFP-tagged Lrif1 long isoform (expressed in E14 mESCs) (mouse) (UniProt Q8CDD9).
T1 sequence: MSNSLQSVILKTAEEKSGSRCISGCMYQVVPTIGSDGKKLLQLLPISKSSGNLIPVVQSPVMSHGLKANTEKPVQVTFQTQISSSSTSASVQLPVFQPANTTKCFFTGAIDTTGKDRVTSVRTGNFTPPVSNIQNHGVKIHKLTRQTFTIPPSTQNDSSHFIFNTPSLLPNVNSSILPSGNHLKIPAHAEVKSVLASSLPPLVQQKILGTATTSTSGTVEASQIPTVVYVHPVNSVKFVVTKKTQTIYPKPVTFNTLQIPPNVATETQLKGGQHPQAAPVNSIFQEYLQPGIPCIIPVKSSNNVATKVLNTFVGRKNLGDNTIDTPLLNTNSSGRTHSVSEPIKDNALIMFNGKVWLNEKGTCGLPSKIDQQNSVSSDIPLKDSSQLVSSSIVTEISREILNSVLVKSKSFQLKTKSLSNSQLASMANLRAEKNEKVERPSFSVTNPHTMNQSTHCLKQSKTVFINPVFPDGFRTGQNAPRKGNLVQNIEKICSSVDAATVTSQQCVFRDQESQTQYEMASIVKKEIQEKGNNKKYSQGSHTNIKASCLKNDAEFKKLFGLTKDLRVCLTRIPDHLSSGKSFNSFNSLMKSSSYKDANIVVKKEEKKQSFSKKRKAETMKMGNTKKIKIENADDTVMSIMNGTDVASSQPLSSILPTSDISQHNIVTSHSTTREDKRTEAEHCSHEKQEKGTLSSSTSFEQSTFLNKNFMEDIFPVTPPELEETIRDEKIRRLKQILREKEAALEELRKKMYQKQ
Put plainly: affinity purification with mass spectrometry.

As to “Smchd1, endogenous in mESCs (from UniProt Q6P5D8 1-2007)”, the binding result was “binds”.
